# No constants are given. Whether binding was seen depends on the method and setting. In cells and extracts the contact can be indirect.
# By UniProt entry, the sequences of proteins in these tests, tags left out.
# UniProt P42859: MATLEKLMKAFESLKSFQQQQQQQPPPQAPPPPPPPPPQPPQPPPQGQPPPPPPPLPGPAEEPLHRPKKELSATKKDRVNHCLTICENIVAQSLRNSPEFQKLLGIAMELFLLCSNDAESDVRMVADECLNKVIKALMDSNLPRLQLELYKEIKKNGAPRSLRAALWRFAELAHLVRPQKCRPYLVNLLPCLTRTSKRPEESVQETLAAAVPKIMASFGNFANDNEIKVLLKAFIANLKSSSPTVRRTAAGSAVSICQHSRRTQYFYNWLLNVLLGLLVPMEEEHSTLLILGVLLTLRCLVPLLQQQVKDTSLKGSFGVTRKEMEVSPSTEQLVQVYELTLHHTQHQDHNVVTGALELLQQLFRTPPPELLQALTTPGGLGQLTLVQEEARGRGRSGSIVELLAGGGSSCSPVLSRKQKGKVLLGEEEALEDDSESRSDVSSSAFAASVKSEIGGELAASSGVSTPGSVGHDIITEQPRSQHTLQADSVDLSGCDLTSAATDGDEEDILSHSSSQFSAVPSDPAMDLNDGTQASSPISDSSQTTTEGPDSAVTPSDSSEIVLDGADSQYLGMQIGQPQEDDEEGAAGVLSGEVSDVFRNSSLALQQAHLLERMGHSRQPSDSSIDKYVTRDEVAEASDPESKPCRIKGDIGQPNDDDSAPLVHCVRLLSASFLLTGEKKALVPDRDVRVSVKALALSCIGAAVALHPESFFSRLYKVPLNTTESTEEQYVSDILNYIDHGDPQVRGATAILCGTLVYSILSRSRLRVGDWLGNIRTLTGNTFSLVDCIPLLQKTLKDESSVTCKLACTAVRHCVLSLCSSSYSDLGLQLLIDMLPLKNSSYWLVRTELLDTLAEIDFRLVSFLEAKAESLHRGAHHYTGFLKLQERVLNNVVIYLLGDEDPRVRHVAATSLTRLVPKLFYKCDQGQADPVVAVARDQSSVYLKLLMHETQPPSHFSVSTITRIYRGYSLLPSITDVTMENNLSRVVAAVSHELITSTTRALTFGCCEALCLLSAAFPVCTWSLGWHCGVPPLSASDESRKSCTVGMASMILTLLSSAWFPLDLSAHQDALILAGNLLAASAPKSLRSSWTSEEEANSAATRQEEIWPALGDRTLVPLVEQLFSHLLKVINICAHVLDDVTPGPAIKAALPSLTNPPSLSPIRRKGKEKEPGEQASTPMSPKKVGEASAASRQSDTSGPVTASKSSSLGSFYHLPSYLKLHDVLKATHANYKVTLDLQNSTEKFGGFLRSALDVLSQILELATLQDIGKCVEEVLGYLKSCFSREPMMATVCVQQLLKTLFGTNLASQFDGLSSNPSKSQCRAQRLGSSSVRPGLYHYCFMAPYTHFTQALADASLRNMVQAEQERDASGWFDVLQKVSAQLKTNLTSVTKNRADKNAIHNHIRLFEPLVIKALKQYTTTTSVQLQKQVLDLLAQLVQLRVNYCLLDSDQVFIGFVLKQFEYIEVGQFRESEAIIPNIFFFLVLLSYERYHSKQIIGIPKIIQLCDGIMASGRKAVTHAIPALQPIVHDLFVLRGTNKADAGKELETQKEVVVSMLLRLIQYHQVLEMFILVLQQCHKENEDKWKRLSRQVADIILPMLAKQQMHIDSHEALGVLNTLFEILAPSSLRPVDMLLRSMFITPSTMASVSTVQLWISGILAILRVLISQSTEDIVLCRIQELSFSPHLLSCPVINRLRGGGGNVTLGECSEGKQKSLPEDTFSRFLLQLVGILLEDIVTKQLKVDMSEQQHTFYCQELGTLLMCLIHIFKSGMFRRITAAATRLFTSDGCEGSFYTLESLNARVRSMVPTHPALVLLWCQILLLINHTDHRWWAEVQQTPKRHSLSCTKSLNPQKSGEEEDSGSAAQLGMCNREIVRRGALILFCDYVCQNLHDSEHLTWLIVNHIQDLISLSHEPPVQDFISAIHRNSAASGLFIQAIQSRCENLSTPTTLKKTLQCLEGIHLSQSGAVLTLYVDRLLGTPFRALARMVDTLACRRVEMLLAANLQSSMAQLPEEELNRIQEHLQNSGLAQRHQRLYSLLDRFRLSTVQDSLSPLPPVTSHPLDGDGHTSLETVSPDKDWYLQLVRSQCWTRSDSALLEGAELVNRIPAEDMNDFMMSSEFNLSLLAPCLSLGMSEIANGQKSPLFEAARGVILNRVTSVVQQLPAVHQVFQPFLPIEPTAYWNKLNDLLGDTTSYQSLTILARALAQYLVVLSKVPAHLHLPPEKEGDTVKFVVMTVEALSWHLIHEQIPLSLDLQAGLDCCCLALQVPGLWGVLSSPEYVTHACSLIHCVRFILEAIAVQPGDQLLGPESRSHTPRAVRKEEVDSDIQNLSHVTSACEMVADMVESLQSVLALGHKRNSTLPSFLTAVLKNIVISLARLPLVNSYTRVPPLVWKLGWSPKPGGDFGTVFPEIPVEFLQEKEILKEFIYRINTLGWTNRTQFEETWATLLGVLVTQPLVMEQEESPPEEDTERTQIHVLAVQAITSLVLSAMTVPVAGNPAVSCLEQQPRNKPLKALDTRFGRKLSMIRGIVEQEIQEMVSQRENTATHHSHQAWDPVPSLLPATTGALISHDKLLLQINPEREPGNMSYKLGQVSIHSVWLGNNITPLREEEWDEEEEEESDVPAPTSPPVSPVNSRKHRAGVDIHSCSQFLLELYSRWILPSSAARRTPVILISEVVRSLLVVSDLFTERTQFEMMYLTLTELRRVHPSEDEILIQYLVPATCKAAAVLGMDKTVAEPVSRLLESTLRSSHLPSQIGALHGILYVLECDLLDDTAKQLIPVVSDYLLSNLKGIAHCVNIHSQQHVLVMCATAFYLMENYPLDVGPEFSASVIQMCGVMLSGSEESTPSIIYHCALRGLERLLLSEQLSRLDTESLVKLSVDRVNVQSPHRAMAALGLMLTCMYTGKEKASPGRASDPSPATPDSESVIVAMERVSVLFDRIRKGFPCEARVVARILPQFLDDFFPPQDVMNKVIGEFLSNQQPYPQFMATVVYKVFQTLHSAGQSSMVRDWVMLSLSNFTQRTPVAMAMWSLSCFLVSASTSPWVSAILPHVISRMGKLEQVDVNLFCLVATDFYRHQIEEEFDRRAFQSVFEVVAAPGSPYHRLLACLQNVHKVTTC
# Biological target: wild type huntingtin (endogenous, mouse brain) (mouse (endogenous in mouse brain)) (UniProt P42859)
# Assay: co-IP; telencephalic homogenates (1000 x g supernatant) of 40-week-old R6/1 and WT mice, 1 ug/ul in PBS pH 7.4 with 1 mM EDTA, 1% Nonidet P40; 3 ug mouse monoclonal anti-huntingtin (MAB5492), 4 °C overnight, protein-G agarose; blot for Bassoon
substance,measurement,value
"Bassoon (endogenous, mouse brain) (from UniProt O88737 1-3942)",binding,no binding

# — article PMC7268643
